Source: PubChem BioAssay AID1159584 (Peter MacCallum Cancer Centre, 2016)
In all, the deposit lists about 18,000 reagents; shown is a random part of them. No sequences are given here. Not stated in the record: the amount of reagent, the time to read-out.

Purpose: 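Genes that CDH1-null MCF10A cells selectively depend on to survive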 (primary screen)
Cell system: human MCF10A breast epithelial cells, parental and CDH1-null
Reagents: siRNA against human genes
Read-out: 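Cell viability by CellTiter-Glo ATP luminescence, each line scaled to the mean of mock wells across plates, then CDH1-null over parental ratio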
Reading the numbers: CDH1-null / parental viability ratio: higher = CDH1-null cells survive relatively better than parental; CDH1-null viability vs mock: higher = more viable CDH1-null cells; parental viability vs mock: higher = more viable parental cells

Target gene,CDH1-null / parental viability ratio,CDH1-null viability vs mock (fraction of mock),parental viability vs mock (fraction of mock)
KIAA0586,0.88,0.46,0.52
C3orf70,1.06,1.03,0.97
AMY1B,0.92,0.74,0.8
CETN1,1.1,0.99,0.9
ROS1,0.62,0.5,0.8
TPR,1.11,0.99,0.89
CASK,0.92,0.78,0.85
IL7R,0.9,1.01,1.12
MAP2,1.16,1.17,1.01
NIPSNAP2,1.23,0.86,0.7
MRPL11,1.17,0.61,0.52
ZNF175,1.12,1.23,1.1
ETV6,0.86,0.96,1.12
IPMK,0.9,0.86,0.96
TASOR,0.88,0.79,0.9
RBM14,1.25,0.3,0.24
TM7SF2,0.8,0.6,0.75
PDPK1,0.88,0.85,0.97
ENOX1,1.04,0.88,0.85
TRIM43B,0.84,0.86,1.02
XIAP,0.94,0.45,0.48
NPDC1,1.05,0.97,0.92
INS-IGF2,1.01,0.91,0.9
HTR2B,0.78,0.84,1.08
DOK4,1.42,0.88,0.62
MYO3A,1,0.85,0.85
CD27,0.99,0.82,0.83
EEIG2,1.06,1.08,1.02
RAD51B,0.97,0.74,0.76
FAM219B,1.18,0.71,0.6
OR11A1,1.12,1.29,1.15
ALX3,1.01,0.98,0.97
PTGIS,0.74,0.4,0.54
GPR183,0.83,0.9,1.08
VPS4A,0.67,0.48,0.72
MAF,0.96,0.96,1
NHSL3,1.27,0.76,0.6
CLDN12,1.19,0.81,0.68
MNDA,1.15,0.97,0.84
GINS4,1.32,0.96,0.73
RAP1GAP,0.99,0.95,0.96
RNPC3,1.23,1.06,0.86
KANSL2,1.1,0.86,0.78
FAM110C,1.4,0.77,0.55
UPF3A,1.16,0.78,0.67
ZNF226,1.09,0.7,0.64

Already shown: 3 of the entries above.
Target gene,CDH1-null / parental viability ratio,CDH1-null viability vs mock (fraction of mock),parental viability vs mock (fraction of mock)
FAM219B,1.18,0.71,0.6
OR11A1,1.12,1.29,1.15
ALX3,1.01,0.98,0.97
